Reference: PubChem BioAssay AID1224828 (NIAID, 2016)

Screen: 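Regulators linking TLR4 signalling to p65 nuclear translocation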 (primary screen)
System: mouse RAW264.7 G9 macrophage reporter cells (GFP-p65, Tnf promoter-mCherry)
Knock-down reagent: siRNA pool against mouse genes, 100 nM
Time to read-out: 2 days siRNA transfection, then 40 min LPS before fixation
Conditions: LPS (Salmonella minnesota R595) at 10 ng/ml
Detection: 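Microscopy ratio of nuclear to perinuclear-ring GFP-p65 signal, scaled to the plate median; gene score is the average of two replicate robust z-scores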
Scale: p65 translocation robust z-score: higher = more nuclear NF-kappaB p65 after LPS than the plate median; nuclear/cytoplasmic p65 ratio: higher = more nuclear NF-kappaB p65
Call rule: 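Active if robust z is above 3.3 (negative regulators) or below -1.56, the Tlr4 control median (positive regulators); activity score 50 or more; control wells not called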
Calls: active = hit (p65 shift raised or lowered); inactive = no clear change
This is an unselected part of about 17,000 reagents tested. Of all reagents, 762 (4.5%) got an active call. 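Active calls include both raised and lowered p65 entry, mostly lowered; wells with fewer than 50 cells lack a z-score.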 Raw values are not corrected between plates. Entries without a mark were called inactive. The numbers tell different reagents against one gene apart. Some reagents were tested in more than one well and are listed for each.

| gene | pool no. | p65 translocation robust z-score | nuclear/cytoplasmic p65 ratio, rep 1 | nuclear/cytoplasmic p65 ratio, rep 2 | low cell count flag |
| --- | --- | --- | --- | --- | --- |
| Exosc3 (exosome component 3) | 1 | 0.29 | 1.62 | 1.69 | enough cells to score |
| Med25 (mediator complex subunit 25) | 1 | 0.43 | 1.48 | 1.49 | enough cells to score |
| Fcgrt (Fc fragment of IgG receptor and transporter) | 1 | 1.38 | 1.7 | 1.5 | enough cells to score |
| Nfatc3 | 1 | -0.54 | 1.31 | 1.33 | enough cells to score |
| Tle1 (transducin-like enhancer of split 1) | 1 | -0.21 | 1.44 | 1.54 | enough cells to score |
| Dipk1a (divergent protein kinase domain 1A) | 1 | – | 1.36 | 1.15 | fewer than 50 cells per well; well left out of scoring |
| Traf4 (TNF receptor associated factor 4) | 1 | 1.47 | 1.69 | 1.73 | enough cells to score |
| Mael (maelstrom spermatogenic transposon silencer) | 1 | 0.28 | 1.38 | 1.34 | enough cells to score |
| Irx5 (Iroquois homeobox 5) | 1 | 0.24 | 1.56 | 1.37 | enough cells to score |
| Zcchc8 (zinc finger, CCHC domain containing 8) | 1 | 0.26 | 1.44 | 1.29 | enough cells to score |
| Atf7ip2 (activating transcription factor 7 interacting protein 2) | 1 | -0.21 | 1.61 | 1.55 | enough cells to score |
| Atf7ip2 (activating transcription factor 7 interacting protein 2) | 2 | -0.49 | 1.46 | 1.81 | enough cells to score |
| Krt85 (keratin 85) | 1 | 1.78 | 1.41 | 1.67 | enough cells to score |
| Mtmr12 (myotubularin related protein 12) | 1 | 0.11 | 1.55 | 1.39 | enough cells to score |
| Tnfrsf11b | 1 | -1.76 (active) | 1.26 | 1.12 | enough cells to score |
| Klk8 (kallikrein related-peptidase 8) | 1 | – | 1.47 | 1.17 | fewer than 50 cells per well; well left out of scoring |
| Tram1 (translocating chain-associating membrane protein 1) | 1 | 0.44 | 1.6 | 1.54 | enough cells to score |
| Usp39 (ubiquitin specific peptidase 39) | 1 | 0.77 | 1.5 | 1.3 | enough cells to score |
| Pcdh8 (protocadherin 8) | 1 | 1.24 | 1.62 | 1.57 | enough cells to score |
| Gm9946 (predicted gene 9946) | 1 | -0.17 | 1.41 | 1.49 | enough cells to score |
| Or1s2 (olfactory receptor family 1 subfamily S member 1) | 1 | 0.85 | 1.65 | 1.61 | enough cells to score |
| Wbp1l (WW domain binding protein 1 like) | 1 | 0.43 | 1.68 | 1.56 | enough cells to score |
| Slc35g1 | 1 | – | 1.46 | 1.28 | fewer than 50 cells per well; well left out of scoring |
| Medag (mesenteric estrogen dependent adipogenesis) | 1 | 1.06 | 1.47 | 1.63 | enough cells to score |
| COL6A3 | 1 | 2.41 | 1.89 | 2.23 | enough cells to score |
| Fam149b (family with sequence similarity 149, member B) | 1 | 0.57 | 1.82 | 1.39 | enough cells to score |
| Hdac9 (histone deacetylase 9) | 1 | -0.68 | 1.36 | 1.31 | enough cells to score |
| Hdac9 (histone deacetylase 9) | 2 | -1.43 | 1.42 | 1.35 | enough cells to score |
| Npepl1 (aminopeptidase-like 1) | 1 | 0.66 | 1.78 | 1.66 | enough cells to score |
| Proz (protein Z, vitamin K-dependent plasma glycoprotein) | 1 | -0.66 | 1.43 | 1.31 | enough cells to score |
| Neurl3 (neuralized E3 ubiquitin protein ligase 3) | 1 | -0.89 | 1.7 | 1.31 | enough cells to score |
| Or4c11c (olfactory receptor family 4 subfamily C member 11C) | 1 | 0.72 | 1.82 | 1.64 | enough cells to score |
| Sema4d | 1 | 1.74 | 1.75 | 1.86 | enough cells to score |
| Cpne3 (copine III) | 1 | 0.31 | 1.64 | 1.31 | enough cells to score |
| Prkcz (protein kinase C, zeta) | 1 | 0.28 | 1.73 | 1.41 | enough cells to score |
| Slc35g3 | 1 | 1.43 | 1.88 | 1.85 | enough cells to score |
| Pcgf5 (polycomb group ring finger 5) | 1 | – | 1.43 | 1.63 | fewer than 50 cells per well; well left out of scoring |
| Gpr162 (G protein-coupled receptor 162) | 1 | -1.27 | 1.33 | 1.4 | enough cells to score |
| Pkd1 | 1 | 1.97 | 1.59 | 1.83 | enough cells to score |
| Scoc (short coiled-coil protein) | 1 | 0.09 | 1.45 | 1.21 | enough cells to score |
| Hbb-b2 (hemoglobin, beta adult minor chain) | 1 | 1.36 | 1.92 | 1.68 | enough cells to score |
| Foxp3 (forkhead box P3) | 1 | 0.3 | 1.45 | 1.43 | enough cells to score |
| Zdhhc12 (zinc finger, DHHC domain containing 12) | 1 | – | 1.04 | 1.17 | fewer than 50 cells per well; well left out of scoring |
| Smad6 (SMAD family member 6) | 1 | – | 1.2 | 1.32 | fewer than 50 cells per well; well left out of scoring |

In a second layout: entries from further up.
gene,pool no.,p65 translocation robust z-score,"nuclear/cytoplasmic p65 ratio, rep 1","nuclear/cytoplasmic p65 ratio, rep 2",low cell count flag
Med25 (mediator complex subunit 25),1,0.43,1.48,1.49,enough cells to score
Fcgrt (Fc fragment of IgG receptor and transporter),1,1.38,1.7,1.5,enough cells to score
Nfatc3,1,-0.54,1.31,1.33,enough cells to score
Tle1 (transducin-like enhancer of split 1),1,-0.21,1.44,1.54,enough cells to score
Dipk1a (divergent protein kinase domain 1A),1,,1.36,1.15,fewer than 50 cells per well; well left out of scoring
Traf4 (TNF receptor associated factor 4),1,1.47,1.69,1.73,enough cells to score
Mael (maelstrom spermatogenic transposon silencer),1,0.28,1.38,1.34,enough cells to score
Irx5 (Iroquois homeobox 5),1,0.24,1.56,1.37,enough cells to score
"Zcchc8 (zinc finger, CCHC domain containing 8)",1,0.26,1.44,1.29,enough cells to score
Atf7ip2 (activating transcription factor 7 interacting protein 2),1,-0.21,1.61,1.55,enough cells to score
Atf7ip2 (activating transcription factor 7 interacting protein 2),2,-0.49,1.46,1.81,enough cells to score
Krt85 (keratin 85),1,1.78,1.41,1.67,enough cells to score

The results go on:
| gene | pool no. | p65 translocation robust z-score | nuclear/cytoplasmic p65 ratio, rep 1 | nuclear/cytoplasmic p65 ratio, rep 2 | low cell count flag |
| --- | --- | --- | --- | --- | --- |
| Gsg1 (germ cell associated 1) | 1 | -1.22 | 1.46 | 1.37 | enough cells to score |
| Epcam (epithelial cell adhesion molecule) | 1 | 0.59 | 1.58 | 1.63 | enough cells to score |
| 4632415L05Rik (RIKEN cDNA 4632415L05 gene) | 1 | – | 1.15 | 1.11 | fewer than 50 cells per well; well left out of scoring |
| H2-M10.3 (histocompatibility 2, M region locus 10.3) | 1 | -2.67 (active) | 1.2 | 1.18 | enough cells to score |
| Doc2g (double C2, gamma) | 1 | 1.3 | 1.29 | 1.53 | enough cells to score |
| Or13c25 (olfactory receptor family 13 subfamily C member 25) | 1 | – | 1.23 | 1.09 | fewer than 50 cells per well; well left out of scoring |
| Serpine2 (serine (or cysteine) peptidase inhibitor, clade E, member 2) | 1 | -2.15 (active) | 1.29 | 1.2 | enough cells to score |
| Dbn1 (drebrin 1) | 1 | – | 1.23 | 1.58 | fewer than 50 cells per well; well left out of scoring |
| Prss21 (serine protease 21) | 1 | -0.31 | 1.31 | 1.2 | enough cells to score |
| Glo1 (glyoxalase 1) | 1 | 1.69 | 1.62 | 1.63 | enough cells to score |
| Ubb (ubiquitin B) | 1 | -0.93 | 1.37 | 1.38 | enough cells to score |
| Gca (grancalcin) | 1 | 0.92 | 1.74 | 1.58 | enough cells to score |
| Specc1l | 1 | – | 1.28 | 1.97 | fewer than 50 cells per well; well left out of scoring |
| Ctsf (cathepsin F) | 1 | -1.46 | 1.32 | 1.15 | enough cells to score |
| Fank1 (fibronectin type 3 and ankyrin repeat domains 1) | 1 | – | 1.32 | 1.59 | fewer than 50 cells per well; well left out of scoring |
| Gkn1 (gastrokine 1) | 1 | – | 1.17 | 1.62 | fewer than 50 cells per well; well left out of scoring |
| Wtap (WT1 associating protein) | 1 | -0.23 | 1.39 | 1.27 | enough cells to score |
| Npy6r (neuropeptide Y receptor Y6) | 1 | 0.92 | 1.87 | 1.66 | enough cells to score |
| Bag2 (BCL2-associated athanogene 2) | 1 | 1.38 | 1.85 | 1.79 | enough cells to score |
| Cyp4f13 (cytochrome P450, family 4, subfamily f, polypeptide 13) | 1 | -0.72 | 1.5 | 1.64 | enough cells to score |
| Ccdc70 (coiled-coil domain containing 70) | 1 | – | 2.07 | 1.74 | fewer than 50 cells per well; well left out of scoring |
| Pycr1 (pyrroline-5-carboxylate reductase 1) | 1 | -0.4 | 1.55 | 1.38 | enough cells to score |
| Entpd3 (ectonucleoside triphosphate diphosphohydrolase 3) | 1 | 0.53 | 1.79 | 1.42 | enough cells to score |
| Tex21 (testis expressed gene 21) | 1 | 1.35 | 1.55 | 1.33 | enough cells to score |
| Pld1 (phospholipase D1) | 1 | 0.01 | 1.52 | 1.39 | enough cells to score |
| Spmap2 (sperm microtubule associated protein 2) | 1 | 0.8 | 1.63 | 1.64 | enough cells to score |
| Odf4 (outer dense fiber of sperm tails 4) | 1 | -0.44 | 1.64 | 1.47 | enough cells to score |
| Golgb1 (golgin B1) | 1 | -0.02 | 1.38 | 1.42 | enough cells to score |
| Ptp4a3 (protein tyrosine phosphatase 4a3) | 1 | -0.82 | 1.46 | 1.23 | enough cells to score |
| Zfp775 (zinc finger protein 775) | 1 | – | 0.914 | 0 | fewer than 50 cells per well; well left out of scoring |
| Stk36 (serine/threonine kinase 36) | 1 | -0.17 | 1.64 | 1.38 | enough cells to score |
| Stk36 (serine/threonine kinase 36) | 1 | -1.07 | 1.25 | 1.34 | enough cells to score |
